From PubChem BioAssay AID1347075 (National Center for Advancing Translational Sciences (NCATS), 2019)
About 5,500 (1.4%) of roughly 400,000 compounds were called active. The inconclusive results got no clear call from the source; some entries with a clear call stand among them for comparison. Calls follow the shape of the dose curve; as a rule, active = well fitted cell-killing curve with a large enough effect; inconclusive = small, poorly fitted or top-dose-only effect, or effect the other way; inactive = flat fitted curve, though single readings scatter. Potencies beside an inconclusive call are fits to weak or partial responses and may not hold up.

Assay: qHTS assay for MDR1-selective chemotherapeutics: Primary screen using the parental adenocarcinoma cell KB-3-1; also: nearly all actives have a fitted effect of over 60% in size
Conditions: KB-3-1 viability, CellTiter-Glo ATP luminescence, 72 h; activity change, negative = cytotoxic: at 46.1 µM (top of the series)
Procedure, shortened: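 Screening of KB-3-1 cells (DMEM, 10% FBS, phenol-red free) ran from lowest to highest compound concentration; after 72 h at 37 °C viability was read luminescently and curves fitted.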
% is scaled to controls: 0 for no effect and ±100 for the full control effect; potency is read from the fitted curve at half-maximal effect.

**Q.** Which Potency does the source give for `Cc1cccc(NC(=O)c2ccc(N3CCOCC3)c([N+](=O)[O-])c2)n1` here?
**A.** Its Potency is “inactive”.

**Q.** For `COC(=O)c1c(NC(=S)NN2CCN(C)CC2)sc2c1CCC(C)C2` (stereo not drawn), which Potency is on record?
**A.** The Potency was inconclusive: 29.1 µM [cytotoxic, single point].

**Q.** Which Potency does the source give for `Cc1ccc(CNC(=O)CCC(=O)Nc2nnc(C(C)C)s2)cc1` here?
**A.** The Potency was “inactive”.

**Q.** With `CS(=O)(=O)Nc1cccc(C2=NN(C(=O)CCC(=O)O)C(c3cccs3)C2)c1` (stereo not drawn) as the compound, how does the Potency read?
**A.** The Potency was “inactive”.

**Q.** For `COc1ccc(C(=O)N2CC3(CC(c4cccc(NC(=O)COc5ccc(Cl)cc5)c4)=NO3)C[C@@H]2C(N)=O)cc1` (stereo partly drawn), which Potency is on record?
**A.** Its Potency is inconclusive: 32.6 µM [cytotoxic, single point].

**Q.** Which Potency does the source give for `Cc1nc(SCc2nc3ccc(C(F)(F)F)cc3[nH]2)c2oc3ccccc3c2n1` here?
**A.** Its Potency is active: 16.4 µM.

**Q.** With `Cc1ccc(NC(=O)CSc2nc(NS(=O)(=O)c3ccc(C)cc3)cc(=O)[nH]2)cc1` as the compound, how does the Potency read?
**A.** Its Potency is “inactive”.

**Q.** With `CC1(C)CC(=O)C(C=Nc2ccc(C(=O)c3ccccc3)cc2N=CC2=C(O)CC(C)(C)CC2=O)=C(O)C1` as the compound, how does the activity change, negative = cytotoxic read?
**A.** The activity change, negative = cytotoxic was inconclusive: -8.54%.

**Q.** For `C=CCNC(=O)c1ccc2c(c1)N(CC)C(=O)c1ccccc1S2`, which Potency is on record?
**A.** The Potency was “inactive”.

**Q.** With `O=C(Nc1cccc(Cl)c1)Nc1ccc2c(c1)OCO2` as the compound, how does the Potency read?
**A.** Its Potency is inconclusive: 29.1 µM [cytotoxic, single point].

**Q.** Which Potency does the source give for `COc1ccc(CN/C(C)=C(/C#N)C(N)=O)cc1OC` here?
**A.** The Potency was “inactive”.

**Q.** For `CCc1cc2c(COC(=O)CCNS(=O)(=O)c3cccc(C(F)(F)F)c3)cc(=O)oc2cc1O`, which Potency is on record?
**A.** Its Potency is inconclusive: 29.1 µM [cytotoxic, single point].

**Q.** For `COc1ccc(CN2C(=O)C(CC(=O)NC(c3ccccc3)c3ccccc3)CC(C(=O)N(C(C)C)C(C)C)=C2C)cc1` (stereo not drawn), which Potency is on record?
**A.** Its Potency is “inactive”.

**Q.** Which Potency does the source give for `CCOc1ccc(NC(=O)CCCN2C(=S)NC(C)(C)CC2C)cc1` (stereo not drawn) here?
**A.** Its Potency is “inactive”.

**Q.** For `C#CCOc1ccc(/C=C2\SC(=S)N(Cc3cccnc3)C2=O)cc1`, which Potency is on record?
**A.** Its Potency is active: 20.6 µM.

**Q.** Which Potency does the source give for `Cc1ccc(S(=O)(=O)N2CCN(CCNC(=O)C(=O)NCc3ccccc3)CC2)cc1` here?
**A.** The Potency was inconclusive: 0.0065 µM [cytotoxic, full curve].

**Q.** With `O=C(CN1CCCCCC1)Nc1cc(C(F)(F)F)ccc1Cl` as the compound, how does the Potency read?
**A.** Its Potency is inconclusive: 6.51 µM [cytotoxic, full curve, poor fit].

**Q.** Which Potency does the source give for `CN(CCCC1CCCC1)C(=O)CC1C(=O)NCCN1Cc1cccc(F)c1F` (stereo not drawn) here?
**A.** Its Potency is “inactive”.

**Q.** For `Cc1cc(NC(=O)NC(=O)c2ccccc2NC(=O)CN(C)C)ccc1Oc1ncc(Br)cn1`, which Potency is on record?
**A.** Its Potency is active: 2.91 µM.

**Q.** For `CC1=Nc2cc(C(=O)NCCN3CCOCC3)ccc2Sc2c(C)ccc(C)c21`, which Potency is on record?
**A.** The Potency was active: 14.6 µM.

**Q.** With `Cc1ccsc1/C=N/N=C/c1sccc1C` as the compound, how does the Potency read?
**A.** The Potency was “inactive”.

**Q.** For `COc1cc(/C=N/NC(=O)CCn2cnc(-c3ccccc3)c2-c2ccccc2)ccc1O`, which Potency is on record?
**A.** The Potency was “inactive”.

**Q.** For `Cc1nn(Cc2ccc(Cl)cc2Cl)c(C)c1NC(=O)NC12CC3CC(CC(C3)C1)C2`, which Potency is on record?
**A.** Its Potency is inconclusive: 29.1 µM [cytotoxic, single point].

**Q.** For `O=C(Nc1cccc(C(F)(F)F)c1)c1ccc2snnc2c1`, which Potency is on record?
**A.** The Potency was “inactive”.

**Q.** For `CCc1ccc(NC(=O)Nc2nnc(N(C)C3CCCCC3)s2)cc1`, which Potency is on record?
**A.** The Potency was “inactive”.

**Q.** With `Cc1cc2c(cc1C)C(c1ccccc1Br)CC(=O)N2` (stereo not drawn) as the compound, how does the Potency read?
**A.** The Potency was active: 18.4 µM.

**Q.** With `O=C1CC(O)(c2ccccc2)C(c2ccccc2)=C1c1ccccc1` (stereo not drawn) as the compound, how does the Potency read?
**A.** The Potency was inconclusive: 35.5 µM [cytotoxic, single point].

**Q.** With `O=C(O)C1C2CCC(O2)C1C(=O)Nc1ccc(Br)cc1F` (stereo not drawn) as the compound, how does the Potency read?
**A.** The Potency was “inactive”.

**Q.** With `COc1c(C(=O)Nc2ccccc2N2CCOCC2)cc2ccccc2c1Br` as the compound, how does the Potency read?
**A.** The Potency was inconclusive: 29.1 µM [cytotoxic, single point].

**Q.** For `Cc1cccc(N2CCN(C(=O)C3CCN(c4ncnc5c4nc4n5CCCCC4)CC3)CC2)c1C`, which Potency is on record?
**A.** The Potency was inconclusive: 18.4 µM [cytotoxic, single point].

**Q.** With `CC(C)Cn1c(N)c(C(=O)COC(=O)/C=C/c2ccccc2)c(=O)n(C)c1=O` as the compound, how does the Potency read?
**A.** The Potency was inconclusive: 8.2 µM [cytotoxic, partial curve, poor fit].

**Q.** With `COc1ccc(-c2nnc3ccc(SCC(=O)Nc4nc5ccc(C)cc5s4)nn23)cc1OC` as the compound, how does the Potency read?
**A.** Its Potency is “inactive”.

**Q.** Which Potency does the source give for `COC(=O)c1[nH]c2ccc(F)cc2c1NS(=O)(=O)c1ccc(OC)cc1` here?
**A.** The Potency was active: 2.59 µM.

**Q.** Which Potency does the source give for `O=C(CSc1nnc(C2CC2)n1Cc1ccccc1)N1CCNC1=O` here?
**A.** The Potency was inconclusive: 18.4 µM [rising, single point].

**Q.** With `NC(=O)C1(N2CCCCC2)CCN(C(=S)Nc2ccc(Cl)cc2)CC1` as the compound, how does the Potency read?
**A.** The Potency was active: 11.6 µM.

**Q.** Which Potency does the source give for `C[C@H]1CN([C@@H](C)CO)C(=O)CCCn2nncc2CO[C@@H]1CN(C)S(=O)(=O)c1cccc(C#N)c1` here?
**A.** Its Potency is inconclusive: 9.2 µM [rising, partial curve, poor fit].

**Q.** Which Potency does the source give for `Cc1ccc(/C=C/C(=O)N2CCN(Cc3ccccc3)CC2)o1` here?
**A.** The Potency was “inactive”.

**Q.** For `c1ccc(CN2CC[C@@H](Nc3nccn4ccnc34)C2)cc1`, which Potency is on record?
**A.** Its Potency is “inactive”.

**Q.** Which Potency does the source give for `Cc1cccc(C(=O)Nc2nnc(S(=O)(=O)N(C)Cc3ccco3)s2)c1` here?
**A.** Its Potency is “inactive”.

**Q.** With `OC(C[n+]1ccccc1Cl)c1ccccc1` (stereo not drawn) as the compound, how does the Potency read?
**A.** The Potency was inconclusive: 25.9 µM [cytotoxic, partial curve, poor fit].

**Q.** With `Cc1ccc(NS(=O)(=O)c2ccc3c(c2)CCCN3C(=O)C2CCC2)cc1Cl` as the compound, how does the Potency read?
**A.** The Potency was inconclusive: 29.1 µM [cytotoxic, single point].

**Q.** With `Cc1ccc(S(=O)(=O)N2CCN(C(=O)CN3C(=O)NC(C)(c4ccc(Cl)cc4)C3=O)CC2)c(C)c1` (stereo not drawn) as the compound, how does the Potency read?
**A.** The Potency was inconclusive: 20.6 µM [cytotoxic, single point].

**Q.** Which Potency does the source give for `O=C(Cn1nc(CNc2ccc(Cl)cc2)[n+]2c1CCCCC2)c1ccc(Cl)cc1` here?
**A.** The Potency was active: 16.4 µM.

**Q.** Which Potency does the source give for `CCN(CC)C(=O)C(Sc1nnnn1-c1ccc(O)cc1)c1ccccc1` (stereo not drawn) here?
**A.** The Potency was “inactive”.

**Q.** With `Cc1nc2nncn2c(NCc2ccc(F)cc2)c1C` as the compound, how does the Potency read?
**A.** The Potency was inconclusive: 18.4 µM [cytotoxic, single point].

**Q.** Which Potency does the source give for `O=C1[C@H](Cc2ccccc2)NCC=CC[C@@H](c2ccc(Cl)cc2)N1Cc1ccc(Cl)cc1` here?
**A.** Its Potency is inconclusive: 20.6 µM [cytotoxic, single point].

**Q.** For `Cc1ccc(S(=O)c2ccc(NC(=O)C3CC3)cc2C#N)cc1` (stereo not drawn), which Potency is on record?
**A.** The Potency was inconclusive: 13 µM [cytotoxic, partial curve, poor fit].

**Q.** Which Potency does the source give for `COc1nc(Nc2ccc(O)cc2)nc(OC(C(F)(F)F)C(F)(F)F)n1` here?
**A.** The Potency was inconclusive: 29.1 µM [cytotoxic, single point].
